Results reported in PubChem BioAssay AID504333 (National Center for Advancing Translational Sciences (NCATS), 2011).
About 16,000 (4.4%) of roughly 360,000 compounds were called active. These results got no clear call from the source, so the numbers are uncertain. Calls follow the shape of the dose curve; as a rule, active = well fitted inhibition curve with a large enough effect; inconclusive = small, poorly fitted or top-dose-only effect; inactive = no such curve, though single readings can be large or run the other way.
Also: nearly all actives have a fitted effect of over 60% in size.
Potency is read from the fitted curve at half-maximal effect.

Amino acid sequences for entries named in this document (tags omitted).
UniProt Q9UIF8, whole entry: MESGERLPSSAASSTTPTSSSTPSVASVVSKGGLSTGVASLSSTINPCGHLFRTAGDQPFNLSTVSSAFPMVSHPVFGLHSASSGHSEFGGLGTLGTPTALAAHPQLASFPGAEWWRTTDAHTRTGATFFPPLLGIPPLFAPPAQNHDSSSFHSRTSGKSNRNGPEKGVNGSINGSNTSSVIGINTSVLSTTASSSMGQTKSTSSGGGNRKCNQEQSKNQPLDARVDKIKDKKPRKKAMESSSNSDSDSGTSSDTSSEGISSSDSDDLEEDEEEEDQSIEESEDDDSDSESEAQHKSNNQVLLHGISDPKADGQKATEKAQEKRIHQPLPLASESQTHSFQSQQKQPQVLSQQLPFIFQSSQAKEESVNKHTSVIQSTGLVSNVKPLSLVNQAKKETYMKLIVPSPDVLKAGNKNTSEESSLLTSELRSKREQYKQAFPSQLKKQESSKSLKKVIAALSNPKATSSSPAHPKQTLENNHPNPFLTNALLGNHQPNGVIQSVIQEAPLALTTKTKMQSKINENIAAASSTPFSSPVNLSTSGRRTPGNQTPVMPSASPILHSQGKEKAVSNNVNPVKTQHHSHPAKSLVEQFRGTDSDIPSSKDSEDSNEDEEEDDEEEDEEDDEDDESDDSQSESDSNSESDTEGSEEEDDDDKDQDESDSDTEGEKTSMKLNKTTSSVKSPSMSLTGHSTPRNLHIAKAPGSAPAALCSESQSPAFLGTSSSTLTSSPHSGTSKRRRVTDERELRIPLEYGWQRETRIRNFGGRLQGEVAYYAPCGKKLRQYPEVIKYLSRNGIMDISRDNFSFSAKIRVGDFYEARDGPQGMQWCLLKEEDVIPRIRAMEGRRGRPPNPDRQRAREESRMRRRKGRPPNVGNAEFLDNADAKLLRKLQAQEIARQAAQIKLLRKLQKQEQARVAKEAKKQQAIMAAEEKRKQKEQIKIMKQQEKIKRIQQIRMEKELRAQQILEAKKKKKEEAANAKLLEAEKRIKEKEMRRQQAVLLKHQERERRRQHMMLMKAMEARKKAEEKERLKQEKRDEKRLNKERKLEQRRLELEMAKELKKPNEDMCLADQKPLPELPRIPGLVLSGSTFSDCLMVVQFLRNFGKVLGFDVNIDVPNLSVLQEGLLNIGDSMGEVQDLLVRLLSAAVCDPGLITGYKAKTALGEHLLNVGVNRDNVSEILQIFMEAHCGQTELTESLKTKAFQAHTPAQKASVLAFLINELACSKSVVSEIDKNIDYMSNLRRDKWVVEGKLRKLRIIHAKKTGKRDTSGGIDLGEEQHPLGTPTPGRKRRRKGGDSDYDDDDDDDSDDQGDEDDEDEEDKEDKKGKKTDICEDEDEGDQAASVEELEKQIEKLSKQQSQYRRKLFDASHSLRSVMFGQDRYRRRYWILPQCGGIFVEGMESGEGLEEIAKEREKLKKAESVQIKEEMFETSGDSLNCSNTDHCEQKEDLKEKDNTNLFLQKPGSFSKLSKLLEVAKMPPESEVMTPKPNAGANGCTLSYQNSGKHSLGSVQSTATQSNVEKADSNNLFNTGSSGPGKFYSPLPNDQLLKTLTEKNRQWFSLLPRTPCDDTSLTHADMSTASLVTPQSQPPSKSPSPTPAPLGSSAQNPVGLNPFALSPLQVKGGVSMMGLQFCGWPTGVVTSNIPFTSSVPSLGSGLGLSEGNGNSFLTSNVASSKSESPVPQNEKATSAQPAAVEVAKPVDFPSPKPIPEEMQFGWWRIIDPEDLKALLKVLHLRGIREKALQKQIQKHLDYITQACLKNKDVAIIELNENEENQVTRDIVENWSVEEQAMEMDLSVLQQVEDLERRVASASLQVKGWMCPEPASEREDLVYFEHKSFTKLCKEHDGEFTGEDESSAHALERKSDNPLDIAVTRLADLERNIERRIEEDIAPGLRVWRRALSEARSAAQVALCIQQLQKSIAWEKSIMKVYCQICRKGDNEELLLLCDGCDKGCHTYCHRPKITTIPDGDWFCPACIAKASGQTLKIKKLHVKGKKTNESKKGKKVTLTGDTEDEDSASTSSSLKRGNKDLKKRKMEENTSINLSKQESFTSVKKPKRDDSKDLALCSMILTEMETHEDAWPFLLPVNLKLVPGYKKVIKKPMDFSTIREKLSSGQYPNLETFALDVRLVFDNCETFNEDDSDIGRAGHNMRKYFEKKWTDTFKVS

What follows are compounds tested against Bromodomain adjacent to zinc finger domain protein 2B (Homo sapiens) (UniProt Q9UIF8) (assay: qHTS Assay for Inhibitors of BAZ2B). Settings: AlphaScreen BAZ2B-H3K14Ac peptide displacement.
For `CC(C)(C)c1ccc(OP(C)(=O)O)cc1`, the Potency was inconclusive: 100 µM. With `O=[N+]([O-])c1cc([N+](=O)[O-])c(Nc2ccccn2)c([N+](=O)[O-])c1` the Potency was inconclusive: 50.1 µM. With `O=[N+]([O-])c1cc([N+](=O)[O-])c(-n2nnc3ccccc32)c([N+](=O)[O-])c1` the Potency was inconclusive: 56.2 µM. In the case of `O=[N+]([O-])c1cc([N+](=O)[O-])c(Nc2nnnn2CCO)c([N+](=O)[O-])c1`, the Potency is reported as inconclusive: 50.1 µM. For `CC1=NCCc2c1[nH]c1ccccc21.O=[N+]([O-])c1cc([N+](=O)[O-])c(O)c([N+](=O)[O-])c1`, the Potency was inconclusive: 50.1 µM. For `O=[N+]([O-])c1cc([N+](=O)[O-])c(Nc2cccnc2)c([N+](=O)[O-])c1`, the Potency was inconclusive: 89.1 µM.
